According to patent US9783796B2, “Amidase, gene for the same, vector, transformant, and method for production of optically active carboxylic acid amide and optically active carboxylic acid by using any one of those items” (KANEKA CORPORATION, priority 2007, dated 2017):

Test: Optimum pH, optimum temperature and thermal stability of the amidase reaction of purified HCS
Format: biochemical
Details: N-benzylnipecotamide as substrate; for Optimum reaction pH: 1 hour at 30° C.; for Optimum reaction temperature: 1 hour at each temperature
Protocol: The Optimum pH and optimum temperature of an amidase reaction of the purified enzyme obtained in Example 1, and thermal stability of the enzyme were determined by quantifying N-benzylnipecotic acid produced in the hydrolysis reaction using N-benzylnipecotamide as a substrate, by HPLC. For determination of the optimum pH, the reaction was allowed to proceed at each pH for 1 hour at 30° C., and stopped by addition of acetonitrile. The resultant solution was analyzed under the high speed liquid chromatography analysis conditions A described in Example 1. For determination of the optimum temperature, the reaction was allowed to proceed at each temperature for 1 hour, and stopped by addition of acetonitrile. The resultant solution was analyzed under the high speed liquid chromatography analysis conditions A described in Example 1. For determining the thermal stability, after incubation at each temperature for 30 minutes, the reaction was allowed to proceed for 1 hour, and stopped by addition of acetonitrile. The resultant solution was analyzed under the high speed liquid chromatography analysis conditions A described in Example 1.

B1: HCS: amidase purified from Cupriavidus sp. KNK-J915 strain (FERM BP-10739), amino acid sequence SEQ ID NO:1 (protein, listed as Cupriavidus sp.)
chain: MPTDIQTLQTRLHDGAVSRADVIAQAAQHAQQPDAHAVFLHTTFDTAAQVAKAADAACLAGKPLHPLAGLPVSVKDLFNIAGEASRAGSPVRSDALAATADATVVRRLRESGAALVGRTNMTEFAFSGVGINPHFGTPVNPADKQVARIPGGSSSGAAVSVALGLAVAGLGSDTGGSIRIPAALCGLTGFKPTARRVPLDGAFPLSYTLDTACAMARTVQDCVLVDSVIADQAVLPVIKGAAGIRLAIPRQVLLDDLDDTVARAFDRALGRLSAAGVQIEHIDLPELAELATINASGGFTAAEAHAIHRHVLATRREQYDPRVASRIDRGAAMSAADYVDLMRARLDWITRVAARLEGFDAVACPTVPMVAPPIAPLVADDALFFHTNALLLRNTSAFNFLDGCSISLPCHQPDELPVGLMLSHGALRDAQLLGTAIALESIVKPAA
Optimum reaction pH: pH 8.0 to 9.0
Optimum reaction pH (listed as SEQ ID NO:1): 8.0 to 9.0
Optimum reaction temperature: 50 °C
Optimum reaction temperature (listed as SEQ ID NO:1): 50 °C
